Results taken from the supplement of paper PMC10849652.
The list shows a part of the results.

Protein sequences, listed by entry. Tags and fused reporters are not part of them. Lines headed by an entry give the natural chain unless they say otherwise; changes in a name come on top.
UniProt Q499Z4: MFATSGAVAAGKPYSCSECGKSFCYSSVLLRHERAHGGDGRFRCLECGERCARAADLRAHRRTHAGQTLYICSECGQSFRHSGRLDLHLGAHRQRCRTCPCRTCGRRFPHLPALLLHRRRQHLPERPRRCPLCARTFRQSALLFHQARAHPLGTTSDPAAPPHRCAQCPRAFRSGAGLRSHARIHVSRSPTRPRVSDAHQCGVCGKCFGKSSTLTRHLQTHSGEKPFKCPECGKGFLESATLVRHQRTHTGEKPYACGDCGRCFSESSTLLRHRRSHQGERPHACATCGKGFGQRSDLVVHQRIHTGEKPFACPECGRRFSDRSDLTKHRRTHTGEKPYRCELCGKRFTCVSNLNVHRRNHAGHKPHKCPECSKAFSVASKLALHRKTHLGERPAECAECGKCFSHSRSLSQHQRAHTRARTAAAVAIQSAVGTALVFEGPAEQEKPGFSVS
UniProt Q5VV52: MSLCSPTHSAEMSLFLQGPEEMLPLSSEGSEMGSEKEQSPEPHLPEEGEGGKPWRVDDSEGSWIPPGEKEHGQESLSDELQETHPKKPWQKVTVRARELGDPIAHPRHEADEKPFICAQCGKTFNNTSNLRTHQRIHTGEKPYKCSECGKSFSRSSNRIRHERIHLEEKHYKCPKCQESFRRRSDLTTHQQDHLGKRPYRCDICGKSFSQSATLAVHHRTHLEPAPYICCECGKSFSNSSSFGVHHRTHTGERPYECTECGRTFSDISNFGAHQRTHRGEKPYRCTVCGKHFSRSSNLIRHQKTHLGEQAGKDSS
UniProt Q9Y5V0: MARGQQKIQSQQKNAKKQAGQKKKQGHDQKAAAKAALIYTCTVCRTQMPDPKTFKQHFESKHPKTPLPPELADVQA
UniProt Q16587: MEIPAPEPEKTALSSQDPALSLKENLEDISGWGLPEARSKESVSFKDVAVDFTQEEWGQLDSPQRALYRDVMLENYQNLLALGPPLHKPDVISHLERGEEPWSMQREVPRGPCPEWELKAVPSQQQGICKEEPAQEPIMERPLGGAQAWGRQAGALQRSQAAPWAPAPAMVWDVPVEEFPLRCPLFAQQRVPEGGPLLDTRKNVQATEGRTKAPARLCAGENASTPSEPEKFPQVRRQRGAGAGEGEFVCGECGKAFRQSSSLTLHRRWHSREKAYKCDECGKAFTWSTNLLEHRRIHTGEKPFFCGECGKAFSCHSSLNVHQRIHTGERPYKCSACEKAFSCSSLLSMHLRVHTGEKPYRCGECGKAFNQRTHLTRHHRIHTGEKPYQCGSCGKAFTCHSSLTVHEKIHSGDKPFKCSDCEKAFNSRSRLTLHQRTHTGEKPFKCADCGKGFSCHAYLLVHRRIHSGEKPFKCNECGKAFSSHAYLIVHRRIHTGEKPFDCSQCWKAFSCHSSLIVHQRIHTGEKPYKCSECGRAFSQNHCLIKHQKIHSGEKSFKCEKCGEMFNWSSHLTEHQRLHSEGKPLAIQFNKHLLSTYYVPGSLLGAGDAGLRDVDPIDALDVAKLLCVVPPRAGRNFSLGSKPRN
UniProt Q9H5H4: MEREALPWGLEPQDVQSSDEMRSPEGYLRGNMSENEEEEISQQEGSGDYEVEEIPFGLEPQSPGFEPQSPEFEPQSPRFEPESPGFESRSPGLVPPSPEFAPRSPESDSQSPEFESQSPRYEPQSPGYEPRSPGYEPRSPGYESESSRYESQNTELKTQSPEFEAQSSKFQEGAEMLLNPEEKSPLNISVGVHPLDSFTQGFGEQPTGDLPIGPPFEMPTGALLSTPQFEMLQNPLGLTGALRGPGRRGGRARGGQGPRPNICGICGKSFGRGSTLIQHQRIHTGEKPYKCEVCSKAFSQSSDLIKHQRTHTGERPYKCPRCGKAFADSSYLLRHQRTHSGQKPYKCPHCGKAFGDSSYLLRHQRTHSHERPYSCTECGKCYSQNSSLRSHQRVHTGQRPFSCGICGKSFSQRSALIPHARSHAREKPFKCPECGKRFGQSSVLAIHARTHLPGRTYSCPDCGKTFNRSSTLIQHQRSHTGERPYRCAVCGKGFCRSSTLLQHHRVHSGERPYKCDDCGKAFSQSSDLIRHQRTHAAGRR
UniProt Q8NDX6: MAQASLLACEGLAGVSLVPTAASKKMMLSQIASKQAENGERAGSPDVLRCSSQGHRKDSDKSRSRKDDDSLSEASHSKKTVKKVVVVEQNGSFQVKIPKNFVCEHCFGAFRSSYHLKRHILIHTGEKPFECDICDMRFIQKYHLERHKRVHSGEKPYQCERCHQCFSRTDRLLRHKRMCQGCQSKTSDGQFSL
UniProt Q96BR6: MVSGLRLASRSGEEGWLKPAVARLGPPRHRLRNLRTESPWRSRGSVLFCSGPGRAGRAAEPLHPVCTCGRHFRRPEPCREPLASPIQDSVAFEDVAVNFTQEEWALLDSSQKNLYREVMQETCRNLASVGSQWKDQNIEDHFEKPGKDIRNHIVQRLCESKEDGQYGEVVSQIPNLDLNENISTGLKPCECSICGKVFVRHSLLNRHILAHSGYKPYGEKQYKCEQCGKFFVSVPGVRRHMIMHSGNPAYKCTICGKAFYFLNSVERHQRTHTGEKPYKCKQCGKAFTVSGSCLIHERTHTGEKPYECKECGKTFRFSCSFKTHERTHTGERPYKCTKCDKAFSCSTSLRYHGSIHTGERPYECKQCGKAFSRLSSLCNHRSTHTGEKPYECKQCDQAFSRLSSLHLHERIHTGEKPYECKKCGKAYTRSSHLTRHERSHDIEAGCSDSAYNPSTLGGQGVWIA
UniProt P0C7X2: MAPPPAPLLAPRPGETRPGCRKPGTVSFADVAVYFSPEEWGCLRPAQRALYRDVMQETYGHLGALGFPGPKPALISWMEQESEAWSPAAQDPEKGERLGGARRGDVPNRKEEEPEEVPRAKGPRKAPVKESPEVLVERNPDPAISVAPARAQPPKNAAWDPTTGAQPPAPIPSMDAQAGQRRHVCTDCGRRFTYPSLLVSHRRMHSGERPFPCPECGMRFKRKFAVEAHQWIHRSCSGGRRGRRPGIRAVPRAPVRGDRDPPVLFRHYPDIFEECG
UniProt Q9H7X3: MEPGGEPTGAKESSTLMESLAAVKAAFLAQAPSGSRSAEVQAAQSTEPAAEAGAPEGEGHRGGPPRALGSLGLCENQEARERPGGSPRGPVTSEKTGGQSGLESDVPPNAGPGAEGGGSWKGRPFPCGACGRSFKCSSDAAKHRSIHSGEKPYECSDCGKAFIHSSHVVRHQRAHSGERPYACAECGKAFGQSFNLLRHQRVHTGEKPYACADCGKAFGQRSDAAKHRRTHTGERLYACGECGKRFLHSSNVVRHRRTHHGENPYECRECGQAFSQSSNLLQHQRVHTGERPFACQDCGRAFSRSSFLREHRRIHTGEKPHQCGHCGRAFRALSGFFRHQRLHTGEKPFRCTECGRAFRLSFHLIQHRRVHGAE

Columns and labels:
Assay in all cases: log2 fold change, soluble protein after heating vs DMSO (PISA); higher = thermal stabilisation; K562 cells, 10 uM, 30 min; active = over 0.2 and 3.5 SD of the protein, either way, in both replicates (recomputed)
ZNF672 = ZNF672 (UniProt Q499Z4)
In short: (§1)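 Thermal stability values are relative to control samples and come from duplicates. They are expressed as log2 fold changes. For measurement, K562 cells (2×10^6 cells/mL) received 10 μM compound for 30 min, and aliquots were heated for 3 min over 48°C-58°C, pooled, and extracted at 4°C in PBS with 0.5% NP-40. Soluble protein, the supernatant after 21,000xg for 90 min, was quantified by TMTpro 16plex LC-MS/MS with equalised channel sums.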

ZNF691 = ZNF691 (UniProt Q5VV52)
In short: as §1

ZNF706 = ZNF706 (UniProt Q9Y5V0)
In short: as §1

ZNF74 isoform 5 = ZNF74 isoform 5 (UniProt Q16587)
In short: as §1

ZNF768 = ZNF768 (UniProt Q9H5H4)
In short: as §1

ZNF740 = ZNF740 (UniProt Q8NDX6)
In short: as §1

ZNF669 = ZNF669 (UniProt Q96BR6)
In short: as §1

ZNF688 = ZNF688 (UniProt P0C7X2)
In short: as §1

ZNF696 = ZNF696 (UniProt Q9H7X3)
In short: as §1

Measured: log2 fold change

NC(=O)c1ccc2nc(-c3ccc(Oc4ccc(Cl)cc4)cc3)[nH]c2c1
inactive: ZNF672 = 0.06 | ZNF691 = 0.046 | ZNF706 = -0.012 | ZNF74 isoform 5 = -0.018 | ZNF768 = -0.061

CC1=C(C(=O)Nc2cc3cn[nH]c3cc2F)C(c2ccc(C(F)(F)F)cc2)CC(=O)N1 (stereo not given)
inactive: ZNF672 = -0.084 | ZNF691 = -0.061 | ZNF706 = 0.021 | ZNF74 isoform 5 = 0.004 | ZNF740 = 0.043 | ZNF768 = 0.022

c1cc(OCCN2CCCCC2)cc(-c2n[nH]c3ccc(-c4nnc[nH]4)cc23)c1
inactive: ZNF672 = -0.12 | ZNF691 = -0.074 | ZNF706 = -0.023 | ZNF74 isoform 5 = 0.138 | ZNF740 = 0.079 | ZNF768 = -0.285

CC[C@@H]1C(=O)N(C)c2cnc(Nc3ccc(C(=O)N[C@H]4CC[C@H](N5CCN(CC6CC6)CC5)CC4)cc3OC)nc2N1C(C)C [volasertib]
inactive: ZNF669 = 0.104 | ZNF688 = 0.05 | ZNF691 = 0.077 | ZNF706 = -0.065 | ZNF74 isoform 5 = -0.303 | ZNF740 = 0.067 | ZNF768 = 0.389

Cc1nc(Nc2n[nH]c3c2CN(C(=O)N[C@H](CN(C)C)c2ccccc2)C3(C)C)c2sccc2n1
inactive: ZNF672 = 0.029 | ZNF691 = 0.041 | ZNF706 = -0.014 | ZNF74 isoform 5 = 0.029 | ZNF740 = -0.065 | ZNF768 = 0

CC[C@H](C)n1cc(C)c2c(C(=O)NCc3c(C)cc(C)[nH]c3=O)cc(-c3ccc(N4CCNCC4)nc3)cc21
inactive: ZNF672 = 0.06 | ZNF691 = 0.029 | ZNF706 = -0.039 | ZNF74 isoform 5 = 0.05 | ZNF740 = -0.077 | ZNF768 = 0.011

C=CC(=O)N1CCC[C@@H](n2nc(-c3ccc(Oc4ccccc4)cc3)c3c(N)ncnc32)C1 [ibrutinib]
inactive: ZNF672 = 0.045 | ZNF691 = 0.086 | ZNF706 = 0.006 | ZNF74 isoform 5 = 0.026 | ZNF740 = -0.015 | ZNF768 = -0.004

Cc1cc(Nc2cc(CN3CCOCC3)c3nc(C)c(Cc4ccc(Cl)cc4F)n3n2)n[nH]1 [gandotinib]
inactive: ZNF672 = 0.251 | ZNF691 = 0.062 | ZNF696 = 0.283 | ZNF706 = -0.078 | ZNF74 isoform 5 = -0.063 | ZNF768 = 0.112

CN(CCOc1ccc(C[C@@H]2SC(=O)NC2=O)cc1)c1ccccn1 (racemic) [rosiglitazone]
inactive: ZNF672 = -0.034 | ZNF691 = -0.064 | ZNF706 = 0.007 | ZNF74 isoform 5 = -0.026 | ZNF740 = 0.158 | ZNF768 = -0.122

By substructure, the compounds so far with sulfur
Cc1nc(Nc2n[nH]c3c2CN(C(=O)N[C@H](CN(C)C)c2ccccc2)C3(C)C)c2sccc2n1
inactive: ZNF672 = 0.029 | ZNF691 = 0.041 | ZNF706 = -0.014 | ZNF74 isoform 5 = 0.029 | ZNF740 = -0.065 | ZNF768 = 0

CN(CCOc1ccc(C[C@@H]2SC(=O)NC2=O)cc1)c1ccccn1 (racemic) [rosiglitazone]
inactive: ZNF672 = -0.034 | ZNF691 = -0.064 | ZNF706 = 0.007 | ZNF74 isoform 5 = -0.026 | ZNF740 = 0.158 | ZNF768 = -0.122

Further structures

Cc1cccc(CC(=O)N2CCc3c2ccc(-c2cn(C)c4ncnc(N)c24)c3F)n1
inactive: ZNF672 = 0.061 | ZNF691 = -0.069 | ZNF696 = 0.008 | ZNF706 = 0.081 | ZNF74 isoform 5 = 0.033 | ZNF768 = -0.031

CS(=O)(=O)N1CCN(Cc2cc3nc(-c4cccc5[nH]ncc45)nc(N4CCOCC4)c3s2)CC1 [pictilisib]
inactive: ZNF672 = 0 | ZNF691 = 0.041 | ZNF696 = -0.01 | ZNF706 = -0.118 | ZNF74 isoform 5 = -0.137 | ZNF768 = -0.014

Cc1ncc(-c2ccnc(Nc3ccc(S(C)(=O)=O)cc3)n2)n1C(C)C
inactive: ZNF672 = 0.089 | ZNF691 = -0.043 | ZNF706 = -0.033 | ZNF74 isoform 5 = -0.078 | ZNF740 = -0.053 | ZNF768 = -0.076

O=C(CCCCCCNC(=O)c1cnc(N(c2ccccc2)c2ccccc2Cl)nc1)NO [citarinostat]
inactive: ZNF672 = -0.047 | ZNF691 = 0.003 | ZNF706 = -0.016 | ZNF74 isoform 5 = 0.011 | ZNF740 = -0.008 | ZNF768 = -0.032

CCn1cc(-c2ccnc3[nH]c(-c4cccc(CN(C)C)c4)cc23)c(-c2ccc(NC(=O)N(C)C)cc2)n1
inactive: ZNF672 = -0.037 | ZNF691 = 0 | ZNF696 = -0.002 | ZNF706 = 0.023 | ZNF74 isoform 5 = 0.077 | ZNF768 = 0.183

COC(=O)N[C@@H](C)CNc1nccc(-c2cn(C(C)C)nc2-c2cc(Cl)cc(NS(C)(=O)=O)c2F)n1 [encorafenib]
inactive: ZNF672 = 0.101 | ZNF691 = -0.022 | ZNF706 = -0.018 | ZNF74 isoform 5 = -0.089 | ZNF740 = -0.074 | ZNF768 = 0.104

CCN(CCCOc1ccc2c(Nc3cc(CC(=O)Nc4cccc(F)c4)[nH]n3)ncnc2c1)CCOP(=O)(O)O [barasertib]
inactive: ZNF672 = -0.074 | ZNF691 = -0.06 | ZNF706 = 0.039 | ZNF74 isoform 5 = 0.055 | ZNF740 = -0.026 | ZNF768 = -0.111

C#Cc1cccc(Nc2ncnc3cc(OCCOC)c(OCCOC)cc23)c1 [erlotinib]
inactive: ZNF672 = 0.098 | ZNF691 = -0.046 | ZNF706 = 0.047 | ZNF74 isoform 5 = -0.019 | ZNF768 = -0.178

Cc1cn(-c2cc(NC(=O)c3ccc(C)c(Nc4nccc(-c5cccnc5)n4)c3)cc(C(F)(F)F)c2)cn1 [nilotinib]
inactive: ZNF672 = -0.047 | ZNF691 = 0.022 | ZNF706 = 0.008 | ZNF74 isoform 5 = -0.095 | ZNF740 = -0.164 | ZNF768 = -0.024

CS(=O)(=O)CCNCc1ccc(-c2ccc3ncnc(Nc4ccc(OCc5cccc(F)c5)c(Cl)c4)c3c2)o1 [lapatinib]
inactive: ZNF669 = -0.074 | ZNF688 = -0.095 | ZNF691 = -0.002 | ZNF706 = -0.058 | ZNF74 isoform 5 = 0.06 | ZNF740 = -0.185 | ZNF768 = 0.128

Cc1ccc(Sc2cncc3sc(C(N)=O)cc23)cc1
inactive: ZNF669 = -0.111 | ZNF688 = -0.026 | ZNF691 = 0.003 | ZNF706 = -0.01 | ZNF74 isoform 5 = 0.193 | ZNF740 = 0.033 | ZNF768 = -0.075

Cc1ccc(NC(=O)c2ccc(CN3CC[C@H](N(C)C)C3)c(C(F)(F)F)c2)cc1Nc1nccc(-c2cncnc2)n1 [bafetinib]
inactive: ZNF672 = 0.157 | ZNF691 = -0.002 | ZNF706 = -0.08 | ZNF74 isoform 5 = 0.004 | ZNF740 = -0.069 | ZNF768 = 0.084

Cn1cncc1[C@@](N)(c1ccc(Cl)cc1)c1ccc2c(c1)c(-c1cccc(Cl)c1)cc(=O)n2C [tipifarnib]
inactive: ZNF669 = -0.055 | ZNF688 = -0.163 | ZNF691 = 0.057 | ZNF706 = 0.009 | ZNF74 isoform 5 = -0.425 | ZNF740 = 0.014 | ZNF768 = 0.173

O=C1NC(=O)/C(=C\c2ccc3nccnc3c2)S1
inactive: ZNF672 = -0.033 | ZNF691 = 0.002 | ZNF706 = 0.025 | ZNF74 isoform 5 = -0.05 | ZNF740 = -0.077 | ZNF768 = -0.031

CC[C@@H]1C(=O)N(C)c2cnc(Nc3ccc(C(=O)NC4CCN(C)CC4)cc3OC)nc2N1C1CCCC1
inactive: ZNF672 = 0.202 | ZNF691 = 0.056 | ZNF706 = 0.025 | ZNF74 isoform 5 = -0.192 | ZNF740 = 0.001 | ZNF768 = 0.127

COc1cc2ncnc(Nc3ccc(F)c(Cl)c3)c2cc1OCCCN1CCOCC1 [gefitinib]
inactive: ZNF672 = -0.196 | ZNF691 = 0.013 | ZNF706 = 0.005 | ZNF74 isoform 5 = 0.061 | ZNF740 = -0.016 | ZNF768 = -0.096

CN1CCC(CNc2ccc3ncc(-c4cccc(OC(F)(F)F)c4)n3n2)CC1
inactive: ZNF672 = -0.151 | ZNF691 = 0.091 | ZNF696 = 0.008 | ZNF706 = 0.047 | ZNF74 isoform 5 = 0.117 | ZNF768 = 0.2

COc1cc2nc(-c3cc(F)ccc3O)nc(N[C@@H]3CNC[C@H]3C(C)(C)O)c2cc1OC
inactive: ZNF669 = -0.237 | ZNF688 = 0.142 | ZNF691 = -0.025 | ZNF706 = 0.07 | ZNF74 isoform 5 = 0.191 | ZNF740 = -0.013 | ZNF768 = -0.073

c1cn2cc(-c3ccc4cn[nH]c4c3)nc(Nc3ccc(N4CCOCC4)cc3)c2n1 [entospletinib]
inactive: ZNF672 = -0.044 | ZNF691 = -0.03 | ZNF706 = 0.02 | ZNF74 isoform 5 = -0.081 | ZNF740 = -0.03 | ZNF768 = 0.151

CCn1c(C(=O)N(C2CC2)C2CC2)cc2c3c(ncn3C)c(Nc3cc(C)n(C)n3)nc21
inactive: ZNF672 = 0.038 | ZNF691 = -0.026 | ZNF706 = 0.016 | ZNF74 isoform 5 = 0.046 | ZNF768 = -0.058

CN1CCN(CCOc2cc(OC3CCOCC3)c3c(Nc4c(Cl)ccc5c4OCO5)ncnc3c2)CC1 [saracatinib]
inactive: ZNF672 = 0 | ZNF691 = -0.093 | ZNF706 = -0.013 | ZNF768 = -0.126

O=C(O)c1ccc2c(c1)nc(Nc1cccc(Cl)c1)c1ccncc12 [silmitasertib]
inactive: ZNF672 = 0.012 | ZNF691 = 0.044 | ZNF706 = -0.012 | ZNF740 = -0.04 | ZNF768 = 0.123

Cn1cc(-c2ccc3c(c2)CCN3C(=O)Cc2cccc(C(F)(F)F)c2)c2c(N)ncnc21
inactive: ZNF672 = -0.171 | ZNF691 = 0 | ZNF706 = -0.01 | ZNF740 = -0.094 | ZNF768 = -0.419

CO[C@H]1C[C@@H]2CC[C@@H](C)[C@@](O)(O2)C(=O)C(=O)N2CCCC[C@H]2C(=O)O[C@H]([C@H](C)C[C@@H]2CC[C@H](n3cnnn3)[C@H](OC)C2)CC(=O)[C@H](C)/C=C(\C)[C@@H](O)[C@@H](OC)C(=O)[C@H](C)C[C@H](C)/C=C/C=C/C=C/1C [zotarolimus]
inactive: ZNF672 = 0.028 | ZNF691 = 0.061 | ZNF706 = 0.01 | ZNF740 = -0.103 | ZNF768 = 0.029

Oc1cc(-c2nc(-c3ccccc3)[nH]c2-c2ccncc2)ccc1Cl
inactive: ZNF672 = -0.021 | ZNF691 = 0.137 | ZNF706 = 0.02 | ZNF740 = -0.118 | ZNF768 = -0.073
